The assay addresses FLAG-tagged siRNA-resistant wild-type PSMD14 (wtPSMD14^R) (UniProt O00487). The assay can be described thus: co-IP; FLAG-tagged PSMD14^R (wild type or JAMM-motif mutant) expressed in U2OS cells was immunoprecipitated; co-precipitated proteins detected (Supplementary Fig. 7).

The chains behind the UniProt entries cited, without tags or fusion partners.
UniProt O00487: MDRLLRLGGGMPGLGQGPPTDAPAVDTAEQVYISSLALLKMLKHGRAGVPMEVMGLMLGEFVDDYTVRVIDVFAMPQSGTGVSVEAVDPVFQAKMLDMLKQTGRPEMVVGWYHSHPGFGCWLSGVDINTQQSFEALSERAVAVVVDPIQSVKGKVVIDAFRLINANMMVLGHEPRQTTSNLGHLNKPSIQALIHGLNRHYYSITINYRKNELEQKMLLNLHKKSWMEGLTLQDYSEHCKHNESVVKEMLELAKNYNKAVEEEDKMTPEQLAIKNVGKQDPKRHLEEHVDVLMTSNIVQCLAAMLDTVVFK
UniProt P54727: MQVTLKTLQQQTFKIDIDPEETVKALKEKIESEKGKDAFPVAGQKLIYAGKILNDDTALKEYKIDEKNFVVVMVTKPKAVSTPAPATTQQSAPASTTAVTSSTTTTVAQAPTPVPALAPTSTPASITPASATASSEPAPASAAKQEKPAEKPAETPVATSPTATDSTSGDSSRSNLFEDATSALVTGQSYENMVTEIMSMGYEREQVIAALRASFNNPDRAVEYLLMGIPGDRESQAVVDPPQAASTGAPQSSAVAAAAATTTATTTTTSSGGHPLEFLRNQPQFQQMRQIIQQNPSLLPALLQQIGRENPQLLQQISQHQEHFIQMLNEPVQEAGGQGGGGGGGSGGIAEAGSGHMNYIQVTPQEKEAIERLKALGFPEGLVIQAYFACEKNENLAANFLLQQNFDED

Results are given in words; binding and its absence hold for the method and conditions named. Binding seen in cells or lysates may run through a third protein. Some entries that bind do so weakly or less than the wild type.

In the case of RAD23B (from UniProt P54727 1-409), the binding result was “binds”.
